PubChem BioAssay AID652243, Drosophila RNAi Screening Center, 2013
Test: 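Fly regulators of androgen-dependent reporter output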 (primary screen). Cell system: Drosophila S2R+ cells. Knock-down reagent: long dsRNA against Drosophila genes. Duration: 72 h (48 h, then 24 h hormone). Treatment: synthetic androgen R1881 at 10 nM for 24 h. Measured: 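Per-well raw luminescence of the androgen-driven firefly reporter and of the Renilla control, two replicates each, without normalisation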. Reading the numbers: firefly reporter light: higher = more light from androgen-responsive reporter; Renilla control light: higher = more constitutive control signal (cell number, transfection). Rule for the call: 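Across duplicate plates, a knock-down whose log firefly/Renilla ratio shifted a set fold down or up from the GFP/LacZ control mean was a hit; the downward cut appears as both 1.5 and 3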. Meaning of the calls: active = hit: reporter lowered or raised; inactive = no hit.
The screen tested about 24,000 reagents; below is an unselected part of those with a known target gene and a result. Of all reagents, 246 (1%) were called active. 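Plates not normalised; calls are printed but the firefly/Renilla ratio behind them is not deposited; fold cut for lowering reported inconsistently.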 Raw values vary from plate to plate and are shown uncorrected. No sequences are given here. Not given: the amount of reagent.

| gene | DRSC id | firefly reporter light, replicate 1 | firefly reporter light, replicate 2 | Renilla control light, replicate 1 | Renilla control light, replicate 2 | outcome |
| --- | --- | --- | --- | --- | --- | --- |
| Diedel | DRSC14317 | 1.66e5 | 2.13e5 | 2.31e6 | 3.12e6 | inactive |
| Diedel | DRSC27523 | 2.69e5 | 3.11e5 | 6.98e5 | 1.01e6 | inactive |
| tut (tumorous testis) | DRSC08909 | 2.09e5 | 1.48e5 | 4.64e5 | 3.56e5 | inactive |
| Agpat2 (1-Acylglycerol-3-phosphate O-acyltransferase 2) | DRSC03532 | 9.85e5 | 6.10e5 | 1.23e6 | 7.82e5 | inactive |
| Agpat2 (1-Acylglycerol-3-phosphate O-acyltransferase 2) | DRSC27901 | 7.08e5 | 4.96e5 | 2.43e6 | 1.33e6 | inactive |
| RnrS (Ribonucleoside diphosphate reductase small subunit) | DRSC07533 | 7.80e5 | 2.48e5 | 1.11e6 | 1.03e6 | inactive |
| RnrS (Ribonucleoside diphosphate reductase small subunit) | DRSC23541 | 2.87e5 | 2.19e5 | 1.45e6 | 5.31e5 | inactive |
| CG14572 | DRSC11733 | 1.64e5 | 1.68e5 | 2.05e6 | 1.91e6 | inactive |
| CG34200 | DRSC38889 | 1.07e6 | 6.79e5 | 1.88e6 | 1.73e6 | inactive |
| T48 (Transcript 48) | DRSC16878 | 1.39e5 | 1.45e5 | 1.83e6 | 2.02e6 | inactive |
| phol (pleiohomeotic like) | DRSC10367 | 1.05e6 | 4.32e5 | 1.20e6 | 5.86e5 | inactive |
| phol (pleiohomeotic like) | DRSC23852 | 7.15e5 | 7.13e5 | 4.71e5 | 5.61e5 | inactive |
| CG8708 | DRSC07240 | 1.05e6 | 6.77e5 | 1.22e6 | 1.08e6 | inactive |
| CG8708 | DRSC27874 | 5.93e5 | 3.78e5 | 1.57e6 | 7.83e5 | inactive |
| UbcE2H (Ubiquitin conjugating enzyme E2H) | DRSC18221 | 1.33e5 | 67756 | 5.75e5 | 3.99e5 | inactive |
| UbcE2H (Ubiquitin conjugating enzyme E2H) | DRSC27123 | 4.22e5 | 4.41e5 | 7.55e5 | 5.44e5 | inactive |
| CG42232 | DRSC15018 | 80329 | 53060 | 2.92e5 | 2.62e5 | inactive |
| CG42232 | DRSC15019 | 79704 | 82443 | 7.28e5 | 7.24e5 | inactive |
| CG42232 | DRSC29868 | 3.81e5 | 5.30e5 | 7.29e5 | 8.84e5 | inactive |
| whd (withered) | DRSC07351 | 1.38e6 | 8.65e5 | 1.87e6 | 1.38e6 | inactive |
| CG33109 | DRSC16533 | 1.43e5 | 1.60e5 | 1.76e6 | 2.04e6 | inactive |
| CG34430 | DRSC06499 | 3.79e5 | 3.59e5 | 1.85e6 | 1.97e6 | inactive |
| Tbc1d15-17 (TBC1 domain family member 15/17) | DRSC00313 | 9.11e5 | 1.14e6 | 3.90e6 | 2.70e6 | inactive |
| Tbc1d15-17 (TBC1 domain family member 15/17) | DRSC28813 | 4.59e5 | 4.88e5 | 8.31e5 | 9.26e5 | inactive |
| CG10943 | DRSC09805 | 2.07e5 | 2.09e5 | 2.02e6 | 1.56e6 | inactive |
| CG10943 | DRSC29258 | 4.90e5 | 6.70e5 | 2.25e6 | 1.55e6 | inactive |
| pippin | DRSC04489 | 6.44e5 | 6.28e5 | 1.59e6 | 1.34e6 | inactive |
| nAChRalpha7 (nicotinic Acetylcholine Receptor alpha7) | DRSC20078 | 3.80e5 | 2.05e5 | 6.48e5 | 4.47e5 | inactive |
| nAChRalpha7 (nicotinic Acetylcholine Receptor alpha7) | DRSC20081 | 2.68e5 | 1.46e5 | 8.11e5 | 4.58e5 | inactive |
| Dscam1 (Down syndrome cell adhesion molecule 1) | DRSC07407 | 2.33e5 | 2.93e5 | 1.48e6 | 1.41e6 | inactive |
| Dscam1 (Down syndrome cell adhesion molecule 1) | DRSC21562 | 8.26e5 | 7.00e5 | 9.42e5 | 7.00e5 | inactive |
| Dscam1 (Down syndrome cell adhesion molecule 1) | DRSC22383 | 6.47e5 | 6.48e5 | 2.57e6 | 2.53e6 | inactive |
| Dscam1 (Down syndrome cell adhesion molecule 1) | DRSC29101 | 4.24e5 | 4.77e5 | 1.08e6 | 1.04e6 | inactive |
| Cpr50Cb (Cuticular protein 50Cb) | DRSC06975 | 1.24e5 | 1.34e5 | 2.98e6 | 2.98e6 | inactive |
| Cpr50Cb (Cuticular protein 50Cb) | DRSC25171 | 1.44e6 | 1.47e6 | 9.60e5 | 1.24e6 | inactive |
| Adk1 (Adenosine kinase 1) | DRSC15514 | 2.13e5 | 2.36e5 | 2.98e6 | 2.97e6 | inactive |
| Adk1 (Adenosine kinase 1) | DRSC36923 | – | – | – | – | inactive |
| CG4983 | DRSC02799 | 1.00e6 | 9.35e5 | 2.19e6 | 2.09e6 | inactive |
| CG4983 | DRSC26444 | 3.68e5 | 2.29e5 | 7.21e5 | 6.51e5 | inactive |
| hook | DRSC03545 | 1.04e6 | 9.23e5 | 1.48e6 | 1.78e6 | inactive |
| CG32371 | DRSC22209 | 5.92e5 | 5.28e5 | 2.04e6 | 1.78e6 | inactive |
| CG32371 | DRSC26049 | 2.87e5 | 1.93e5 | 7.59e5 | 8.41e5 | inactive |
| CG15399 | DRSC38934 | 8.99e5 | 9.61e5 | 2.26e6 | 2.08e6 | inactive |
| CG9733 | DRSC16549 | 2.03e5 | 1.76e5 | 2.72e6 | 2.48e6 | inactive |
| svr (silver) | DRSC17293 | 1.14e6 | 7.00e5 | 1.47e6 | 8.77e5 | inactive |
| svr (silver) | DRSC18841 | 3.30e5 | 3.28e5 | 4.18e6 | 3.39e6 | inactive |
| svr (silver) | DRSC27397 | 2.02e5 | 2.64e5 | 7.70e5 | 8.80e5 | inactive |
| svr (silver) | DRSC38955 | 9.07e5 | 6.56e5 | 2.07e6 | 1.27e6 | inactive |
| PIG-A (Phosphatidylinositol glycan anchor biosynthesis class A) | DRSC06982 | 1.37e6 | 7.30e5 | 2.31e6 | 1.35e6 | inactive |
| CG11307 | DRSC11648 | 5.31e5 | 6.83e5 | 1.83e6 | 2.20e6 | inactive |
| CG11307 | DRSC26602 | 5.47e5 | 4.93e5 | 6.10e5 | 6.49e5 | inactive |
| CG30281 | DRSC04528 | 1.13e6 | 5.02e5 | 1.54e6 | 9.06e5 | inactive |
| CG30281 | DRSC26805 | 3.26e5 | 3.82e5 | 5.78e5 | 4.97e5 | inactive |
| mh (maternal haploid) | DRSC20168 | 2.86e5 | 3.64e5 | 1.82e6 | 2.45e6 | inactive |
| mei-P22 (meiotic P22) | DRSC11366 | 1.03e5 | 95088 | 1.27e6 | 1.38e6 | inactive |
| TotM (Turandot M) | DRSC02355 | 1.72e5 | 1.35e5 | 1.41e6 | 1.32e6 | inactive |
| CG9890 | DRSC04590 | 2.29e5 | 4.41e5 | 1.37e6 | 1.48e6 | inactive |
| CG9890 | DRSC25594 | 1.28e6 | 1.09e6 | 9.79e5 | 1.03e6 | inactive |

6 of these entries in another layout:
gene	DRSC id	firefly reporter light, replicate 1	firefly reporter light, replicate 2	Renilla control light, replicate 1	Renilla control light, replicate 2	outcome
CG34200	DRSC38889	1.07e6	6.79e5	1.88e6	1.73e6	inactive
T48 (Transcript 48)	DRSC16878	1.39e5	1.45e5	1.83e6	2.02e6	inactive
phol (pleiohomeotic like)	DRSC10367	1.05e6	4.32e5	1.20e6	5.86e5	inactive
phol (pleiohomeotic like)	DRSC23852	7.15e5	7.13e5	4.71e5	5.61e5	inactive
CG8708	DRSC07240	1.05e6	6.77e5	1.22e6	1.08e6	inactive
CG8708	DRSC27874	5.93e5	3.78e5	1.57e6	7.83e5	inactive
